According to patent US20200316211A1, “LOCALLY ACTING TOLL-LIKE RECEPTOR 7 (TLR7) AND/OR TLR8 AGONIST IMMUNOTHERAPY COMPOUNDS AND THEIR USES” (Altimmune UK Limited, priority 2019, published 2020):
At least one peptide structure holds a part that was inferred or is arguable (an end, a ring closure or a residue). For some of these results: At least one read-out could not be matched to a standard name with certainty. Some entries repeat one wording, which the source may state once for all of them. Where a SMILES comes first, the peptide text is derived from it. Side-chain parts run from the residue outwards. The star is where a group is joined. X1 = CCCCc1nc2c(N)nc3ccccc3c2n1Cc1ccc(CNC(=O)COCC(=O)*)cc1; PEG3 = NCCOCCOCCOCCC(=O)O

What was measured:
[1] = system: CT-26 (colon carcinoma) tumor cells; assay: Example 8 intratumoral treatment, CT26 model; format: in vivo, BALB/c mice; conditions: one intratumoral injection, 11, 33, 100 nmol (kHL-12 100 nmol); example written in present tense
CT26 cells = assay: Antitumor activity after intratumoral injection, CT26 right flank model; format: in vivo, BALB/c mice; conditions: 100 nmol/dose/animal intratumoral, day 1, 3, 5; FIG. 10
Method: Six to eight-week-old female BALB/c mice (Charles River) were injected subcutaneously with 2×10^5 CT26 cells on the right flank. When the tumors reached an average volume of ˜150 mm^3, mice were randomized into seven groups of eight mice per group, approximately 10 days (13 days) post tumor cell grafting, referred as day 0. After randomization, tumor size and body weight were assessed three times a week for the duration of the study. Animals were sacrificed according to the following humane endpoints: tumor volume ≥2000 mm^3, presence of necrotic or ulcerated tumor, impaired mobility including transient prostration or hunched posture, or interference with a vital physiological function. Treatments were initiated on day 1. All animals from group 1 to group 6 received three intratumoral injections of either formulated or non-formulated small molecule TLR7/8 agonists, or vehicle control, once every two days, on day 1, day 3 and day 5, in 50 μl delivery dose. Mice of group 7 were untreated. Animals from group 1 to group 4 were respectively treated with 100 nmol/dose/animal of kHL-12 or pHL-12 both prepared in 28 mM L-Histidine/Mannitol dilution buffer, or 3M-052 (MedChemExpress, teltralimod Cat. No.: HY-109104) prepared in ethanol/sesame oil (1:10), or R848 (Invivogen, R848 VacciGrade™, Cat. Code vac-r848) reconstituted in 28 mM L-Histidine/Mannitol dilution buffer. […]

[2] = system: CT26 colon carcinoma tumor; assay: Intratumoral kHL-12 with immune checkpoint inhibitors, bilateral CT26 tumor model; format: in vivo, BALB/c mice; conditions: for Injected tumors, individual tumor measurements: FIG. 5
[3] = Appearance (visual) and solubility (RP-HPLC of supernatant) in different buffer conditions; format: physicochemical
Method: The solubility of peptide conjugates KK-12, HH-12, AH-12 and HL-12 was determined by visual inspection of the solution and by RP-HPLC. Twenty (20) minutes after dispersion of the peptide conjugates in different buffer conditions, the solutions were centrifuged for 10 minutes and the supernatant analyzed by RP-HPLC. The peak area of each peptide conjugate was compared with the area of the same compound made fully soluble in 10% acetic acid. Appearance of the solution was evaluated visually according to the following criteria: clear, very slightly opalescent, slightly opalescent, opalescent or precipitated.

[4] = Secondary structure of peptide conjugates by circular dichroism (CD); format: physicochemical
C57BL/6J mice = assay: In vivo immunological activity, IFNγ ELIspot on splenocytes after s.c. co-administration with ovalbumin; conditions: 10 nmol conjugate + 2 nmol OVA s.c., day 0 and day 14; FIG. 4

## CCCCc1nc2c(N)nc3ccccc3c2n1Cc1ccc(CNC(=O)COCC(=O)NCCOCCOCCOCCC(=O)NCCCC[C@H](NC(=O)[C@H](CC(C)C)NC(=O)[C@H](CCCNC(=N)N)NC(=O)[C@H](CCCNC(=N)N)NC(=O)[C@H](CC(C)C)NC(=O)[C@H](CC(C)C)NC(=O)[C@H](Cc2c[nH]cn2)NC(=O)[C@H](C)NC(=O)[C@H](CC(C)C)NC(=O)[C@H](CC(C)C)NC(=O)[C@H](C)NC(=O)[C@H](CC(C)C)NC(=O)[C@H](CC(C)C)NC(=O)[C@H](C)NC(=O)[C@H](Cc2c[nH]cn2)NC(=O)[C@H](CC(C)C)NC(=O)[C@H](CC(C)C)NC(=O)[C@H](CCCNC(=N)N)NC(=O)[C@H](CCCNC(=N)N)NC(=O)[C@@H](N)CCCCNC(C)=O)C(N)=O)cc1 [kHL-12, K(Ac)—RRLLHALLALLAHLLRRLK(ADJ12)-NH2] (H-K(Ac)RRLLHALLALLAHLLRRLK([PEG3-X1])-NH2; N-terminus and C-terminus assumed)
[1]
  Tumor growth: capable of inhibiting and/or slowing the growth of cancer in vivo
CT26 cells
  Antitumoral activity (median tumor volume): stabilization of the tumor volume over time
[2]; kHL-12 + anti-CTLA-4 (group 2) vs groups 4, 5, 6, FIG. 7
  Injected tumor, mean tumor measurements up to day 14: more significant anti-tumor activity
[2]; kHL-12 + anti-CTLA-4 vs all other groups, FIG. 7
  Non-injected tumors, mean tumor measurements up to day 14: dramatic impact on tumor growth
[2]; kHL-12 + anti-PD1 (group 1) vs groups 4, 5, 6, FIG. 7
  Injected tumor, mean tumor measurements up to day 14: more significant anti-tumor activity
[2]; kHL-12 IT + anti-CTLA-4 IP (group 2) vs anti-CTLA-4 alone (group 5), FIG. 6
  Non-injected tumors, individual tumor measurements: higher proportion of animals showing evidence of tumor stabilization and/or regression
[2]; kHL-12 IT + anti-CTLA-4 IP (group 2) vs anti-CTLA-4 alone
  Injected tumors, individual tumor measurements: further enhanced
[2]; kHL-12 IT + anti-PD1 IP (group 1) vs anti-PD1 alone
  Injected tumors, individual tumor measurements: further enhanced
[2]; kHL-12 alone (group 3) vs groups 4, 5, 6, FIG. 7
  Injected tumor, mean tumor measurements up to day 14: more significant anti-tumor activity
[2]; kHL-12 alone, 100 nmol IT day 1, 3, 5 (group 3) vs control group 6
  Injected tumors, individual tumor measurements: induces tumor regression in the injected tumors in a larger proportion of animals

## CCCCc1nc2c(N)nc3ccccc3c2n1Cc1ccc(CNC(=O)COCC(=O)NCCOCCOCCOCCC(=O)NCCCC[C@H](NC(=O)[C@H](CC(C)C)NC(=O)[C@H](CCCNC(=N)N)NC(=O)[C@H](CCCNC(=N)N)NC(=O)[C@H](CC(C)C)NC(=O)[C@H](CC(C)C)NC(=O)[C@H](Cc2c[nH]cn2)NC(=O)[C@H](C)NC(=O)[C@H](CC(C)C)NC(=O)[C@H](CC(C)C)NC(=O)[C@H](C)NC(=O)[C@H](CC(C)C)NC(=O)[C@H](CC(C)C)NC(=O)[C@H](C)NC(=O)[C@H](Cc2c[nH]cn2)NC(=O)[C@H](CC(C)C)NC(=O)[C@H](CC(C)C)NC(=O)[C@H](CCCNC(=N)N)NC(=O)[C@H](CCCNC(=N)N)NC(C)=O)C(N)=O)cc1 [HL-12, Ac-RRLLHALLALLAHLLRRLK(ADJ12)-NH2] (Ac-RRLLHALLALLAHLLRRLK([PEG3-X1])-NH2)
[3]; increase in pH from 5.2 to 7.5 in the presence of sodium chloride
  Solubility on pH increase with sodium chloride: fully insoluble
[3]; pH 5.2, NaCl 154 mM
  Appearance of the solution: Clear
[3]; pH 5.2, no NaCl
  Appearance of the solution: Clear
[3]; pH 7.5, NaCl 154 mM
  Appearance of the solution: Precipitated
[3]; pH 7.5, no NaCl
  Appearance of the solution: Clear
[4]; low pH
  Helicity at low pH: very high helicity at low pH
[4]; pH 5.2, NaCl 154 mM, 20° C.
  ALPHA (percentage α-helices): 100%
  BETA (percentage β-sheets): 0%
  OTHERS (percentage other structures): 0%
[4]; pH 5.2, NaCl 154 mM, 37° C.
  ALPHA (percentage α-helices): 99%
  BETA (percentage β-sheets): 1%
  OTHERS (percentage other structures): 0%
[4]; pH 5.2, no NaCl, 20° C.
  ALPHA (percentage α-helices): 88%
  BETA (percentage β-sheets): 1%
  OTHERS (percentage other structures): 11%
[4]; pH 5.2, no NaCl, 37° C.
  ALPHA (percentage α-helices): 87%
  BETA (percentage β-sheets): 1%
  OTHERS (percentage other structures): 11%
[4]; pH 7.5, NaCl 154 mM, 20° C. and 37° C.
  State of the sample in the CD buffer: Precipitated
[4]; pH 7.5, no NaCl, 20° C.
  ALPHA (percentage α-helices): 96%
  BETA (percentage β-sheets): 0%
  OTHERS (percentage other structures): 4%
[4]; pH 7.5, no NaCl, 37° C.
  ALPHA (percentage α-helices): 95%
  BETA (percentage β-sheets): 0%
  OTHERS (percentage other structures): 5%
[4]; pH increase from 5.2 to 7.5, sodium chloride present
  Effect of pH increase in the presence of sodium chloride: precipitation of the peptide
C57BL/6J mice
  In vivo immunological activity (IFNγ SFC per million splenocytes) compared to OVA alone: significant improvement
